Source: publication PMC9300154
Results are given in words; binding and its absence hold for the method and conditions named. In cells and extracts the contact can be indirect. Some results given as binding are weak or reduced against the parent protein; the word gives no strength.

Chains of the proteins cited; added tags and fusions are not shown.
UniProt Q16665: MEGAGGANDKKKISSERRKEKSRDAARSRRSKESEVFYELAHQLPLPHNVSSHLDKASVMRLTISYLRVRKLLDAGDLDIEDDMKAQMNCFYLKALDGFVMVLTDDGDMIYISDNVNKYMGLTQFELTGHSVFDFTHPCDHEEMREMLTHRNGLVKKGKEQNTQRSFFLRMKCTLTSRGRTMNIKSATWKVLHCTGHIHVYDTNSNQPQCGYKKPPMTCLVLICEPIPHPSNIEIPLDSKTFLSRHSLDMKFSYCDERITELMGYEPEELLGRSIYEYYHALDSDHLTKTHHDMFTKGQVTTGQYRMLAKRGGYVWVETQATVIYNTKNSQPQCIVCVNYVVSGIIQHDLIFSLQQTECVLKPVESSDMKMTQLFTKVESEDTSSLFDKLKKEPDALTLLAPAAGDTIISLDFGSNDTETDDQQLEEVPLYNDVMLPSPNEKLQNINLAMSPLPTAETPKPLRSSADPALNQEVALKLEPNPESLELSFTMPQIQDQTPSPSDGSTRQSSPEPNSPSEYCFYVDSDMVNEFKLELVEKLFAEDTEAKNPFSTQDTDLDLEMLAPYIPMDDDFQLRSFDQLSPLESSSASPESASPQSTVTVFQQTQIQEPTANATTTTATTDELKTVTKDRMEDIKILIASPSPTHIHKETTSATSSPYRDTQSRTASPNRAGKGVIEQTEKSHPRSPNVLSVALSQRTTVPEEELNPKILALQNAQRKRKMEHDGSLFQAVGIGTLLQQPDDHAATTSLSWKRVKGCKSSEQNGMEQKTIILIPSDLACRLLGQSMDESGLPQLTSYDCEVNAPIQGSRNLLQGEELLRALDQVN

Biological target: T1, spliced form of X-Box Binding Protein 1 (human (endogenous in human astrocytes and GBM tumour cells)) (UniProt P17861)
T1 sequence: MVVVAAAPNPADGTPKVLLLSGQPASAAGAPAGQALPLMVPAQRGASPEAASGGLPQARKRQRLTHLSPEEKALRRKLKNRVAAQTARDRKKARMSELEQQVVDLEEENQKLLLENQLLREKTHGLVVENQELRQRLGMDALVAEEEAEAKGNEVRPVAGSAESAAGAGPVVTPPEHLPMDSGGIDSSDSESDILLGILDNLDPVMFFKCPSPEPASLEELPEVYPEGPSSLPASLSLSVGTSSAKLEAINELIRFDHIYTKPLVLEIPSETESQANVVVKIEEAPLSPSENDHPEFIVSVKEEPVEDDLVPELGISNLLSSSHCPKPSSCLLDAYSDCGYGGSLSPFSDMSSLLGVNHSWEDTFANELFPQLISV
Experiment: proximity ligation; in situ proximity ligation assay in human/mouse astrocytes and GBM tumour cells depleted of the sXBP1 targets SREBP2/ACSS2

HIF1α (from UniProt Q16665 1-826)
binding: binds
